PubChem BioAssay AID1508597 – Cure First – 2020
This is an unselected part of the about 2,100 reagents, under one of the conditions tested. 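Calls flag viability under 80% in either arm, not effects specific to rucaparib; the reference for percent is not stated.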 A reagent listed more than once was tested more than once; the source does not tell the runs apart. Not given: the 100% reference.

Test: 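Survival screen with siRNA in ovarian cancer cells derived from patients, with or without rucaparib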 (primary screen)
Cells: human ovarian carcinoma lines grown from tumours: OCI-P5x (papillary serous) and OCI-C5x (clear cell)
Reagent: siRNA pool against human genes, 1.25 pmol siRNA per well
Time to read-out: 72 h or 96 h, depending on the cell culture
Challenge: rucaparib 20 µM (about IC30) or vehicle, present until read-out
Rucaparib or vehicle: Rucaparib
Cell line: OCI-P5x (serous)
Detection: 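ATP luminescence measured at 72 or 96 h according to the culture, then normalised and expressed as percent viability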
Direction: viability, normalised: higher = more viable cells remaining
Call rule: 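a well counts as a hit if its normalised viability is under 80 percent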
Calls: active = viability under 80%; inactive = viability 80% or more

| gene knocked down | technical replicate | viability, normalised (%) | activity call |
| --- | --- | --- | --- |
| MED6 (mediator complex subunit 6) | 1 | 65.7 | active |
| MED6 (mediator complex subunit 6) | 2 | 60.3 | active |
| MED6 (mediator complex subunit 6) | 3 | 66.3 | active |
| STRADA (STE20 related adaptor alpha) | 1 | 83.7 | inactive |
| STRADA (STE20 related adaptor alpha) | 2 | 69.8 | active |
| STRADA (STE20 related adaptor alpha) | 3 | 70 | active |
| RAD54L2 (RAD54 like 2) | 1 | 36.9 | active |
| RAD54L2 (RAD54 like 2) | 2 | 41.5 | active |
| RAD54L2 (RAD54 like 2) | 3 | 52.2 | active |
| CXXC5 (CXXC finger protein 5) | 1 | 80.4 | inactive |
| CXXC5 (CXXC finger protein 5) | 2 | 86.1 | inactive |
| CXXC5 (CXXC finger protein 5) | 3 | 79.9 | active |
| TRPM7 | 1 | 96.9 | inactive |
| TRPM7 | 2 | 91.2 | inactive |
| TRPM7 | 3 | 75.1 | active |
| RAG1 (recombination activating 1) | 1 | 46.1 | active |
| RAG1 (recombination activating 1) | 2 | 57.3 | active |
| RAG1 (recombination activating 1) | 3 | 58 | active |
| GON4L (gon-4 like) | 1 | 46.4 | active |
| GON4L (gon-4 like) | 2 | 46.9 | active |
| GON4L (gon-4 like) | 3 | 51.4 | active |
| CARD14 (caspase recruitment domain family member 14) | 1 | 64 | active |
| CARD14 (caspase recruitment domain family member 14) | 2 | 104 | inactive |
| CARD14 (caspase recruitment domain family member 14) | 3 | 71.9 | active |
| MLKL (mixed lineage kinase domain like pseudokinase) | 1 | 129 | inactive |
| MLKL (mixed lineage kinase domain like pseudokinase) | 2 | 133 | inactive |
| MLKL (mixed lineage kinase domain like pseudokinase) | 3 | 98.8 | inactive |
| TSPYL4 (TSPY like 4) | 1 | 60 | active |
| TSPYL4 (TSPY like 4) | 2 | 35 | active |
| TSPYL4 (TSPY like 4) | 3 | 59.6 | active |
| AXL (AXL receptor tyrosine kinase) | 1 | 91.6 | inactive |
| AXL (AXL receptor tyrosine kinase) | 2 | 117 | inactive |
| AXL (AXL receptor tyrosine kinase) | 3 | 68.9 | active |
| PDE6G (phosphodiesterase 6G) | 1 | 57 | active |
| PDE6G (phosphodiesterase 6G) | 2 | 71.9 | active |
| PDE6G (phosphodiesterase 6G) | 3 | 76.4 | active |
| SCYL1 (SCY1 like pseudokinase 1) | 1 | 53.7 | active |
| SCYL1 (SCY1 like pseudokinase 1) | 1 | 64 | active |
| SCYL1 (SCY1 like pseudokinase 1) | 2 | 45.2 | active |
| SCYL1 (SCY1 like pseudokinase 1) | 2 | 83.8 | inactive |
| SCYL1 (SCY1 like pseudokinase 1) | 3 | 78 | active |
| SCYL1 (SCY1 like pseudokinase 1) | 3 | 61.7 | active |
| CDK16 (cyclin dependent kinase 16) | 1 | 88.1 | inactive |
| CDK16 (cyclin dependent kinase 16) | 2 | 80 | inactive |
| CDK16 (cyclin dependent kinase 16) | 3 | 83.1 | inactive |
| GTF2H2 (general transcription factor IIH subunit 2) | 1 | 75 | active |
| GTF2H2 (general transcription factor IIH subunit 2) | 2 | 82.3 | inactive |
| GTF2H2 (general transcription factor IIH subunit 2) | 3 | 68.9 | active |
| DDX59 (DEAD-box helicase 59) | 1 | 68.4 | active |
| DDX59 (DEAD-box helicase 59) | 2 | 70.3 | active |
| DDX59 (DEAD-box helicase 59) | 3 | 59.4 | active |
| CDK11B (cyclin dependent kinase 11B) | 1 | 93.9 | inactive |
| CDK11B (cyclin dependent kinase 11B) | 2 | 93.8 | inactive |
| CDK11B (cyclin dependent kinase 11B) | 3 | 100 | inactive |
| CAMK2B (calcium/calmodulin dependent protein kinase II beta) | 1 | 81.3 | inactive |
| CAMK2B (calcium/calmodulin dependent protein kinase II beta) | 2 | 74.6 | active |
| CAMK2B (calcium/calmodulin dependent protein kinase II beta) | 3 | 68.5 | active |

Laid out differently: entries from further up
gene knocked down	technical replicate	viability, normalised (%)	activity call
MLKL (mixed lineage kinase domain like pseudokinase)	2	133	inactive
MLKL (mixed lineage kinase domain like pseudokinase)	3	98.8	inactive
TSPYL4 (TSPY like 4)	1	60	active
TSPYL4 (TSPY like 4)	2	35	active
